This passage reports binding results from article PMC10820826, “Interrogation and validation of the interactome of neuronal Munc18-interacting Mint proteins with AlphaFold2” (The Journal of Biological Chemistry, 2023).

One test addresses Munc18-1-His (rat) (UniProt P61765).
Test [1] concerns the target T1, GST-Mint1 MID (residues 222-314) (human) (UniProt Q02410).
T1 sequence: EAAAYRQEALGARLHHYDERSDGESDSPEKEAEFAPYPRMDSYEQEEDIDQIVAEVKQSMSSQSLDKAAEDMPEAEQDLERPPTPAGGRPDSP

These are yes or no findings as the source states them, for the method shown. For some assays here: Tags and fused reporters may be left off the sequences shown.

In the case of IVAEVKQSMS [Mint1_1a peptide (273-282)], the binding result in the test with Munc18-1-His (rat) is given as “no binding”.

As for MDSYEQEEDIDQ [Mint1_1b peptide (261-272)], in the test with Munc18-1-His (rat), the binding result is given as “no binding”.

B1: Munc18-3 (protein, UniProt Q60770 1-592)
chain: MAPPVSERGLKSVVWRKIKTAVFDDCRKEGEWKIMLLDEFTTKLLSSCCKMTDLLEEGITVIENIYKNREPVRQMKALYFISPTPKSVDCFLRDFGSKSEKKYKAAYIYFTDFCPDSLFNKIKASCSKSIRRCKEINISFIPQESQVYTLDVPDAFYYCYSPDPSNASRKEVVMEAMAEQIVTVCATLDENPGVRYKSKPLDNASKLAQLVEKKLEDYYKIDEKGLIKGKTQSQLLIIDRGFDPVSTVLHELTFQAMAYDLLPIENDTYKYKTDGKEKEAVLEEDDDLWVRVRHRHIAVVLEEIPKLMKEISSTKKATEGKTSLSALTQLMKKMPHFRKQISKQVVHLNLAEDCMNKFKLNIEKLCKTEQDLALGTDAEGQRVKDSMLVLLPVLLNKNHDNCDKIRAVLLYIFGINGTTEENLDRLIHNVKIEDDSDMIRNWSHLGVPIVPPSQQAKPLRKDRSAEETFQLSRWTPFIKDIMEDAIDNRLDSKEWPYCSRCPAVWNGSGAVSARQKPRTNYLELDRKNGSRLIIFVIGGITYSEMRCAYEVSQAHKSCEVIIGSTHILTPRKLLDDIKMLNKSKDKVSFKDE
Take B1: the binding result in test [1] is “no binding”.

Regarding MDSYEQEEDIDQIVAEVK [Mint1_8 peptide (261-278)], the binding result with Munc18-1-His (rat) was “no binding”.

Turning to MDSYEQEEDIDQIVAE [Mint1_9 peptide (261-276)], the binding result with Munc18-1-His (rat) is on record as “no binding”.
